Reference: article PMC6346685
No constants are given. Whether binding was seen depends on the method and setting. In cells and extracts the contact can be indirect. A yes stands for co-enrichment or nearness to the bait. Other partners may have been found.

Protein sequences, listed by entry. Tags and fused reporters are not part of them. Residues count along the entry.
UniProt P01275, residues 53-81: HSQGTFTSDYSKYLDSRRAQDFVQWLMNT

B1: Chromogranin A (protein, UniProt P26339 19-463)
chain: LPVNSPMTKGDTKVMKCVLEVISDSLSKPSPMPVSPECLETLQGDERILSILRHQNLLKELQDLALQGAKERAQQPLKQQQPPKQQQQQQQQQQQEQQHSSFEDELSEVFENQSPDAKHRDAAAEVPSRDTMEKRKDSDKGQQDGFEATTEGPRPQAFPEPNQESPMMGDSESPGEDTATNTQSPTSLPSQEHVDPQATGDSERGLSAQQQARKAKQEEKEEEEEEEAVAREKAGPEEVPTAASSSHFHAGYKAIQKDDGQSDSQAVDGDGKTEASEALPSEGKGELEHSQQEEDGEEAMVGTPQGLFPQGGKGRELEHKQEEEEEEEERLSREWEDKRWSRMDQLAKELTAEKRLEGEDDPDRSMKLSFRTRAYGFRDPGPQLRRGWRPSSREDSVEARSDFEEKKEEEGSANRRAEDQELESLSAIEAELEKVAHQLQALRRG
B2: Peroxiredoxin-2 (protein, UniProt Q61171 1-198)
chain: MASGNAQIGKSAPDFTATAVVDGAFKEIKLSDYRGKYVVLFFYPLDFTFVCPTEIIAFSDHAEDFRKLGCEVLGVSVDSQFTHLAWINTPRKEGGLGPLNIPLLADVTKSLSQNYGVLKNDEGIAYRGLFIIDAKGVLRQITVNDLPVGRSVDEALRLVQAFQYTDEHGEVCPAGWKPGSDTIKPNVDDSKEYFSKHN
B3: Aconitate hydratase, mitochondrial (protein, UniProt Q99KI0 28-780)
chain: QRAKVAMSHFEPSEYIRYDLLEKNINIVRKRLNRPLTLSEKIVYGHLDDPANQEIERGKTYLRLRPDRVAMQDATAQMAMLQFISSGLPKVAVPSTIHCDHLIEAQVGGEKDLRRAKDINQEVYNFLATAGAKYGVGFWRPGSGIIHQIILENYAYPGVLLIGTDSHTPNGGGLGGICIGVGGADAVDVMAGIPWELKCPKVIGVKLTGSLSGWTSPKDVILKVAGILTVKGGTGAIVEYHGPGVDSISCTGMATICNMGAEIGATTSVFPYNHRMKKYLSKTGRTDIANLAEEFKDHLVPDPGCQYDQVIEINLNELKPHINGPFTPDLAHPVADVGTVAEKEGWPLDIRVGLIGSCTNSSYEDMGRSAAVAKQALAHGLKCKSQFTITPGSEQIRATIERDGYAQILRDVGGIVLANACGPCIGQWDRKDIKKGEKNTIVTSYNRNFTGRNDANPETHAFVTSPEIVTALAIAGTLKFNPETDFLTGKDGKKFKLEAPDADELPRSDFDPGQDTYQHPPKDSSGQRVDVSPTSQRLQLLEPFDKWDGKDLEDLQILIKVKGKCTTDHISAAGPWLKFRGHLDNISNNLLIGAINIENGKANSVRNAVTQEFGPVPDTARYYKKHGIRWVVIGDENYGEGSSREHAALEPRHLGGRAIITKSFARIHETNLKKQGLLPLTFADPSDYNKIHPVDKLTIQGLKDFAPGKPLKCVIKHPNGTQETILLNHTFNETQIEWFRAGSALNRMKELQQ
B4: ELKS/Rab6-interacting/CAST family member 1 (protein, UniProt Q99MI1 1-1120)
chain: MYGSARSVGKVEPSSQSPGRSPRLPRSPRLGHRRTNSTGGSSGNSVGGGSGKTLSMENIQSLNAAYATSGPMYLSDHENVGAETPKSTMTLGRSGGRLPYGVRMTAMGSSPNIASSGVASDTIAFGEHHLPPVSMASTVPHSLRQARDNTIMDLQTQLKEVLRENDLLRKDVEVKESKLSSSMNSIKTFWSPELKKERALRKDEASKITIWKEQYRVVQEENQHMQMTIQALQDELRIQRDLNQLFQQDSSSRTGEPCVAELTEENFQRLHAEHERQAKELFLLRKTLEEMELRIETQKQTLNARDESIKKLLEMLQSKGLSAKATEEDHERTRRLAEAEMHVHHLESLLEQKEKENNMLREEMHRRFENAPDSAKTKALQTVIEMKDSKISSMERGLRDLEEEIQMLKSNGALSSEEREEEMKQMEVYRSHSKFMKNKVEQLKEELSSKDAQGEELKKRAAGLQSEIGQVKQELSRKDTELLALQTKLETLTNQFSDSKQHIEVLKESLTAKEQRAAILQTEVDALRLRLEEKETMLNKKTKQIQDMAEEKGTQAGEIHDLKDMLDVKERKVNVLQKKIENLQEQLRDKEKQMSSLKERVKSLQADTTNTDTALTTLEEALADKERTIERLKEQRDRDEREKQEEIDTYKKDLKDLREKVSLLQGDLSEKEASLLDIKEHASSLASSGLKKDSRLKTLEIALEQKKEECLKMESQLKKAHEATLEARASPEMSDRIQQLEREISRYKDESSKAQTEVDRLLEILKEVENEKNDKDKKIAELESLTSRQVKDQNKKVANLKHKEQVEKKKSAQMLEEARRREDSLSDSSQQLQDSLRKKDDRIEELEEALRESVQITAEREMVLAQEESARTNAEKQVEELLMAMEKVKQELESMKAKLSSTQQSLAEKETHLTNLRAERRKHLEEVLEMKQEALLAAISEKDANIALLELSSSKKKTQEEVAALKREKDRLVQQLKQQTQNRMKLMADNYEDDHFRSSRSNQTNHKPSPDQIIQPLLELDQNRSKLKLYIGHLTALCHDRDPLILRGLTPPASYNADGEQAAWENELQQMTQEQLQNELEKVEGDNAELQEFANTILQQIADHCPDILEQVVNALEESS
B5: FXYD domain-containing ion transport regulator 2 (protein, UniProt Q04646 1-70)
chain: MAGEISDLSANSGGSAKGTENPFEYDYETVRKGGLIFAGLAFVVGLLIILSKRFRCGGGKKHRQVNEDEL
B6: secretogranin 2 (protein, UniProt Q03517 31-617)
chain: QRNQLLQKEPDLRLENVQKFPSPEMIRALEYIEKLRQQAHREESSPDYNPYQGVSVPLQLKENGEESHLAESSRDALSEDEWMRIILEALRQAENEPPSAPKENKPYALNLEKNFPVDTPDDYETQQWPERKLKHMRFPLMYEENSRENPFKRTNEIVEEQYTPQSLATLESVFQELGKLTGPSNQKRERVDEEQKLYTDDEDDVYKTNNIAYEDVVGGEDWSPIEEKIETQTQEEVRDSKENTEKNEQINEEMKRSGQLGLPDEENRRESKDQLSEDASKVITYLRRLVNAVGSGRSQSGPNGDRAARLLQKPLDSQSIYQLIEISRNLQIPPEDLIEMLKAGEKPNGLVEPEQDLELAVDLDDIPEADLDRPDMFQSKMLSKGGYPKAPGRGMVEALPDGLSVEDILNVLGMENVVNQKSPYFPNQYSQDKALMRLPYGPGKSRANQIPKVAWIPDVESRQAPYENLNDQELGEYLARMLVKYPELLNTNQLKRVPSPVSSEDDLQEEEQLEQAIKEHLGPGSSQEMERLAKVSKRIPVGSLKNEDTPNRQYLDEDMLLKVLEYLNQEQAEQGREHLAKRAMENM
B7: Stathmin1 (protein, UniProt P54227 1-149)
chain: MASSDIQVKELEKRASGQAFELILSPRSKESVPDFPLSPPKKKDLSLEEIQKKLEAAEERRKSHEAEVLKQLAEKREHEKEVLQKAIEENNNFSKMAEEKLTHKMEANKENREAQMAAKLERLREKDKHVEEVRKNKESKDPADETEAD

Each binder was assayed against Fc-glucagon (human) (UniProt P01275) (assay: affinity purification with mass spectrometry; Fc-glucagon expressed in α-TC1-6 cells, captured on Protein A-Sepharose from non-ionic lysate of enriched secretory granules, overnight at 4°C; 7 M urea elution; LC-MS/MS; proteins found with Fc alone subtracted; cells in 25 or 5.5 mM glucose, with or without GABA (25 μM), insulin (100 pM) or both for 24 h).

Row | Binder | binding
1 | B1 | binds
2 | B2 | binds
3 | B3 | binds
4 | B4 | binds
5 | B5 | binds
6 | B6 | binds
7 | B7 | binds
